According to paper PMC5309806:
No constants are given. Whether binding was seen depends on the method and setting. Binding seen in cells or lysates may run through a third protein. Tags and fused reporters may be left off the sequences shown.

Biological target: T1, myc-Tcf7l1 (Xenopus laevis Tcf7l1), expressed in HEK293FT cells (Xenopus laevis) (UniProt Q90ZB6)
T1 sequence: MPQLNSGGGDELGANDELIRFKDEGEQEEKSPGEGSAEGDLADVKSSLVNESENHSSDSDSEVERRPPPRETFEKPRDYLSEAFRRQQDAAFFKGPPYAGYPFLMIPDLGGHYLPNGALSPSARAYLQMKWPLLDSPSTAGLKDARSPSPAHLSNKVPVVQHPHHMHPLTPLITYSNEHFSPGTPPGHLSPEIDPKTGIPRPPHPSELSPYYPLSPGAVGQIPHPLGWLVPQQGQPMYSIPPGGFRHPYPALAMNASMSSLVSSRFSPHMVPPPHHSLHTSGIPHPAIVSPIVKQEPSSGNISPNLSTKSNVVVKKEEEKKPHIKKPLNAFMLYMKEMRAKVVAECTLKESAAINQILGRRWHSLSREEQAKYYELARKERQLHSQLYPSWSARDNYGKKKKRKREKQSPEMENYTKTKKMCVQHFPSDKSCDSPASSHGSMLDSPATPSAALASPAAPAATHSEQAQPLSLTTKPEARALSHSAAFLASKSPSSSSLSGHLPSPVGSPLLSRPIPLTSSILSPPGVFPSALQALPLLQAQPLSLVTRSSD
Experiment: co-IP; HEK293FT cells transfected 48 h; lysates in IP buffer (2 mM Tris-Cl pH 7.5, 2 mM EDTA, 150 mM NaCl, 1% Triton X-100); precipitated with anti-myc antibody and Protein G-sepharose at 4 °C; immunoblot

- binding: no binding
Substance: Uch37 (ubiquitin C-terminal hydrolase 37), as in the co-IP of Fig. 2a (from UniProt Q9Y5K5-1 1-329) (enzyme)
